Binding data for one substance are collected here from paper PMC2699478.

By UniProt entry, the sequences of proteins in these tests, tags left out.
UniProt Q01196: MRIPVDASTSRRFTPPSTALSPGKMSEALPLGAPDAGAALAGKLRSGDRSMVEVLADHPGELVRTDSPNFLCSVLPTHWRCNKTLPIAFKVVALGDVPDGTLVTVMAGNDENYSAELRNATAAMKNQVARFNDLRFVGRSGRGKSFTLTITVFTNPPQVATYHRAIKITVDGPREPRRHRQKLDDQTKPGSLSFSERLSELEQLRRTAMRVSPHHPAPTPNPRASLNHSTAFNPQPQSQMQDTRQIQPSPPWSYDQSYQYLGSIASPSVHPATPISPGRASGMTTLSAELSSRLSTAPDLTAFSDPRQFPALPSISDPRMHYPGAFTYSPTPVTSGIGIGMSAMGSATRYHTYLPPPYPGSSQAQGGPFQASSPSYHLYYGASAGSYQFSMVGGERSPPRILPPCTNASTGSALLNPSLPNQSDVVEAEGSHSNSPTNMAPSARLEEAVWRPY
UniProt Q9BZS1: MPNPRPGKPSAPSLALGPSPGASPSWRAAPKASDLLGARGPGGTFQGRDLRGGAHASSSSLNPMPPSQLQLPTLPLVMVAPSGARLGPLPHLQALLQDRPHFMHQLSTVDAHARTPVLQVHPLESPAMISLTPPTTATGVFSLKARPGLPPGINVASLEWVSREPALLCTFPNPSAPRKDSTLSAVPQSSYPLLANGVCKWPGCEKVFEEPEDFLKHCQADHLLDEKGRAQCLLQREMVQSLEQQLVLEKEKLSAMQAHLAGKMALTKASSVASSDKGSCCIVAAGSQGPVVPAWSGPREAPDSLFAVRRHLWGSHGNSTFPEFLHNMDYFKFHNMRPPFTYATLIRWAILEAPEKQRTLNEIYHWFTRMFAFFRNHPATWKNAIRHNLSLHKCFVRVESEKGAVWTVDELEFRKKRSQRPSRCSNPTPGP

No constants are given. Whether binding was seen depends on the method and setting. Binding seen in cells or lysates may run through a third protein. Some results given as binding are weak or reduced against the parent protein; the word gives no strength.

The target of this assay is FLAG-tagged RUNX1 (UniProt Q01196). Briefly: co-IP; HEK293T cells co-transfected with a FLAG-tagged and a non-tagged protein; lysis after 3 days in 150 mM NaCl, 50 mM Tris-HCl pH 7,5, 1% Nonidet P-40, 0,5% sodium deoxycholate; α-FLAG M2 affinity gel 2 h at 4°C, 6 washes; immunoblot with α-FOXP3 eBio7979.

Consider FOXP3fl (from UniProt Q9BZS1 1-431), for which the binding result is listed as “binds”.
